Source: patent publication US8637470B2, “Small humanin-like peptides” (The Regents of the University of California, priority 2008, dated 2014)
“Also recorded” adds a separate entry of the source. Not every detail of the peptide structures is certain; ends, links or a residue may be inferred. Where no end group is shown, it is not given here.

What was measured:
[1] = tested on: 22RV1 human prostate cancer cells; test: Cell proliferation (cell number by MTT/MTS cleavage) in 22RV1 cells; assay type: cell-based; settings: 22RV1, 1 μM, 72 h
Protocol: SHLPs exert distinct effects on cell proliferation. Whether SHLPs have the capacity to influence cell proliferation, in addition to their intrinsic effects on apoptosis induction, was also investigated. Mouse NIT-1 insulinoma β-cells and 22RV1 human prostate cancer cells were serum starved for 24 h, followed by 72 h incubation with 100 nM scrambled control peptide, HN or SHLPs. Cell number, as a measure of cell proliferation, was assessed by cleavage of MTT substrate.
Pro-apoptotic effect on human prostate cancer cells in vitro. To assess the ability of SHLP6 to induce apoptosis in human prostate cancer cells, PC-3, 22RV1 or DU145 cells were incubated in serum free (SF) media for 24 h followed by 24 h incubation with 1 μM scrambled (control) peptide or SHLP6. Apoptosis was assessed by ELISA for fragmentation of histone-associated DNA. In each cell line tested, SHLP6 induced apoptosis by at least 2-fold (FIG. 2), confirming highly significant physiological effects of this novel peptide. To determine whether the effects of SHLP6 were specific to induction of apoptosis, or if it also elicited growth-inhibitory effects, PC-3, DU-145, 22RV1, LAPC4 and LNCaP cells were incubated in SF media for 24 h followed by 72 h incubation with 1 μM SHLP6. Cell number, as a measure of cell proliferation, was assessed by cleavage of MTS substrate.

[2] = tested on: murine 3T3-L1 fibroblasts; test: 3T3-L1 adipocyte differentiation (oil red-O staining); assay type: cell-based; settings: 100 nM peptide with 10 nM insulin, 7 days
Protocol: SHLPs 2 and 3 Stimulate Adipocyte Differentiation of 3T3-L1 Cells in vitro. […] We next assessed the ability of SHLP2, 3 and 6 to modulate the differentiation of 3T3-L1 adipocytes. Differentiation was induced in murine 3T3-L1 fibroblasts by incubation in 1 μM dexamethasone, 100 nM insulin, and 500 μM lisobutylmethyxanthine for 2 days, followed by incubation with 10 nM insulin in the presence of 100 nM scrambled peptide (control), SHLP2, SHLP3 or SHLP6 for 7 days. Differentiation was assessed by oil red-0 staining as a measure of oil droplet formation.

[3] = tested on: PC-3 cells; test: Cell proliferation (MTS) in PC-3 cells; assay type: cell-based, human; settings: PC-3, 1 μM, 72 h
[4] = tested on: DU-145 cells; test: Cell proliferation (MTS) in DU-145 cells; assay type: cell-based, human; settings: DU-145, 1 μM, 72 h
[5] = tested on: LAPC4 cells; test: Cell proliferation (MTS) in LAPC4 cells; assay type: cell-based, human; settings: LAPC4, 1 μM, 72 h
[6] = tested on: LNCaP cells; test: Cell proliferation (MTS) in LNCaP cells; assay type: cell-based, human; settings: 1 μM, 72 h
[7] = tested on: MCF-7 cells; test: Apoptosis ELISA in MCF-7 cells; assay type: cell-based, human; settings: MCF-7, 1 μM, 24 h
[8] = tested on: MCF-7 cells; test: Cell proliferation (MTS) in MCF-7 cells; assay type: cell-based, human; settings: MCF-7, 1 μM, 72 h
[9] = tested on: 22RV1 prostate cancer xenografts; assay type: in vivo; settings: 4 mg/kg/day i.p., 7 days, p=0.04
Protocol: Inhibition of 22RV1 xenograft tumor growth and angiogenesis in vivo. In light of the pro-apoptotic actions of SHLP6 in vitro and the association of many cancers with mitochondrial dysfunction, the effect of SHLP6 on tumor growth was investigated in vivo. SCID mice harboring 22RV1 prostate cancer xenografts were treated with 4 mg/kg/day SHLP6 or scrambled control peptide by daily i.p. injection for 7 days.
To assess the mechanism underlying the reduction in tumor growth, tumor apoptosis (TUNEL), angiogenesis (VEGF) and tumor cell proliferation (PCNA; not shown) were assessed by IHC (FIG. 19). […] SHLP6 therefore has great potential as an anti-cancer agent.

[10] = tested on: zebrafish embryos; test: Angiogenesis in zebrafish embryos (GFP vascular system); assay type: in vivo; settings: injected into embryos, 48 hpf
[11] = tested on: 22RV1 cells; test: Cancer PathwayFinder PCR array gene expression in 22RV1 cells; assay type: cell-based, human; settings: 22RV1, 1 μM
[12] = tested on: Akt, ERK, STAT3, JNK; test: Western blotting of survival-related signaling molecules; assay type: cell-based

MLDQDIPMVQPLLKVRLFND [SHLP6]
Cell proliferation (MTS) [1]: only had an anti-proliferative effect in LAPC4 cells
Adipocyte differentiation (oil red-O staining) [2]: Unlike SHLP6
Cell proliferation (MTS) [3]: only had an anti-proliferative effect in LAPC4 cells
Cell proliferation (MTS) [4]: only had an anti-proliferative effect in LAPC4 cells
Cell proliferation (MTS) [5]: anti-proliferative effect
Cell proliferation (MTS) [6]: only had an anti-proliferative effect in LAPC4 cells
Induction of apoptosis [7]: potently induced apoptosis; also recorded: potent apoptosis-inducer
Cell proliferation (MTS) [8]: inhibited proliferation; also recorded: growth-suppressor
Tumors smaller than control tumors [9]: ~30%
Vessel formation [10]: significantly inhibited vessel formation
Down-regulation of VEGF-A mRNA expression [11]: more than 70 fold
Expression levels of survival-related signaling molecules (Akt, ERK, STAT3, JNK) [12]: no detectable effect
